The test system of assay [1] is SARS-CoV-2 -1 PRF reporter mCherry-FSE-GFP(-1). As to the kind of experiment: mCherry (red) intensity as percent of control; higher = higher upstream reporter expression. To be noted: 10 µM; 24 h; HEK293T.
For assay [2] the test system is unchanged. As to the kind of experiment: percent effect, decrease of GFP/mCherry ratio (-1 PRF reporter) relative to controls; higher = stronger frameshift inhibition. To be noted: 10 µM; 24 h; HEK293T.

Values joined by “and” are separate entries in the source; they are usually repeats but may differ in a detail not shown here. Equal values may be shown once. Where a name gives a salt, the structure may show the parent alone. This is one part of the list. This data set is noisy: repeats of one test often differ as much as different tests do.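 HEK293T cells were given each compound shortly before transfection with a reporter in which red mCherry is followed by the SARS-CoV-2 frameshift element and then GFP in the −1 frame, so GFP appears only after frameshifting.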

Turning to `C[C@H](NC(=O)[C@H](CC(=O)O)NC(=O)CNC(=O)CNC(=O)[C@H](C)NC(=O)[C@@H](N)Cc1c[nH]c2ccccc12)C(=O)N[C@@H](CO)C(=O)NCC(=O)N[C@@H](CCC(=O)O)C(=O)O` [emideltide], the mCherry in assay [1] stood at 90%. In addition, the percent effect in assay [2] was -11.5%.
As for `CCc1ccc(CCOc2ccc(CC3SC(=O)NC3=O)cc2)nc1` (stereo unspecified) [pioglitazone], the mCherry in assay [1] is 94.7% and 90.1%. Besides, the percent effect in assay [2] was -0.212% and -2.59%.
For `N[C@@H](CCC(=O)O)C(=O)O` [glutamic acid], the mCherry in assay [1] worked out at 60.5%. Also, the percent effect in assay [2] was -6.77%.
On the same counts, the results for `CCCCNC(=O)NS(=O)(=O)c1ccc(C)cc1` [Tolbutamide] are 92% and -1.69%.
In turn, `N#Cc1ccc2c(c1)N(CCCN1CCC(O)CC1)c1ccccc1S2` [periciazine] came in with a mCherry in assay [1] of 88.7%. For the same molecule, in assay [2], the percent effect was -1.12%.
In the same order, the values of `CCC[S+]([O-])c1ccc2[nH]c(NC(=O)OC)nc2c1` (stereo unspecified) [Ricobendazole] are 57.8% and -1.53%.
In turn, `O=C(O)CCCCCCCNC(=O)c1ccccc1O` [salcaprozic acid] displayed a mCherry in assay [1] of 75.1%. Moreover, the percent effect in assay [2] stood at 4.45%.
On the same counts, the results for `CC(C)C(=O)Oc1ccc(CO)cc1[C@H](CCN(C(C)C)C(C)C)c1ccccc1` [Fesoterodine] are 125% and 0.863%.
In the same order, the values of `CC(C)OC(=O)Nc1ccc2[nH]c(-c3cscn3)nc2c1` [cambendazole] are 38.7% and -8.19%.
In the case of `O=C(O)C1CC(O)CN1` (stereo unspecified) [Hydroxyproline], the mCherry in assay [1] is 89.3%. In assay [2], the percent effect was -5.3%.
`Cc1cn([C@H]2O[C@@H](CO)[C@H](O)[C@H]2F)c(=O)[nH]c1=O` [clevudine] registered a mCherry in assay [1] of 73.5%. Moreover, the percent effect in assay [2] turned out to be 0.636%.
On the same counts, the results for `CC(C)NC(=O)[C@H]1CCC[C@H]1Nc1nc(Nc2ccc(C(=O)N(C)C3CCN(C)CC3)cc2)ncc1Cl` are 84.7% and -0.316%.
In assay [1], `O=C(O)Cc1cn(-c2ccccc2)nc1-c1ccc(Cl)cc1` [lonazolac] yielded a mCherry of 115%. Besides, in assay [2], the percent effect was -8.61%.
As for `CCCc1nc2c(C)cc(-c3nc4ccccc4n3C)cc2n1Cc1ccc(-c2ccccc2C(=O)O)cc1` [telmisartan], the mCherry in assay [1] is 114% and 94.1%. Moreover, the percent effect in assay [2] was -1.61% and -0.567%.
`C=C[C@H]1CN2CCC1C[C@H]2[C@H](O)c1ccnc2ccc(OC)cc12` (stereo partly specified) [Quinine·HCl·2H2O] came in with a mCherry in assay [1] of 99.1%. The percent effect in assay [2] was determined as 0.816%.
On the same counts, the results for `C[C@@H]1C[C@H]2[C@@H]3CCC4=CC(=O)C=C[C@]4(C)[C@@]3(F)[C@@H](O)C[C@]2(C)[C@@]1(O)C(=O)COP(=O)(O)O` are 102% and 1.04%.
In turn, `O=C(O)CSCC(=O)NC1CCSC1=O` (stereo unspecified) [erdosteine] showed a mCherry in assay [1] of 108%. Moreover, in assay [2], the percent effect turned out to be 0.671%.
Regarding `CC1(C)S[C@@H]2[C@H](NC(=O)[C@H](N)c3ccccc3)C(=O)N2[C@H]1C(=O)OC1OC(=O)c2ccccc21` (stereo partly specified) [talampicillin], the mCherry in assay [1] amounted to 73.1%. In addition, the percent effect in assay [2] is -7.91%.
`CN(C)[C@@H]1C(=O)C(C(=O)NCN2CCCC2)=C(O)[C@@]2(O)C(=O)C3=C(O)c4c(O)cccc4[C@@](C)(O)[C@H]3C[C@@H]12` [Rolitetracycline] came in with a mCherry in assay [1] of 95.1%. Further, the percent effect in assay [2] is -2.86%.
For `CC(C)NCC(O)COc1ccccc1-n1cccc1` (stereo unspecified) [isamoltan], in assay [1], the mCherry amounted to 104%. Further, in assay [2], the percent effect is -2.97%.
In the case of `CC(C(=O)O)c1ccc2c(c1)Cc1ccccc1-2` (stereo unspecified) [cicloprofen], the mCherry in assay [1] was determined as 109%. The percent effect in assay [2] was -8.19%.
In turn, `CC(C(=O)O)c1ccc2c(c1)CC(C(C)C)C2` (stereo unspecified) [isoprofen] returned a mCherry in assay [1] of 82.9%. In addition, in assay [2], the percent effect is -5.14%.
With `C[C@@H]1C[C@H]2[C@@H]3CCC4=CC(=O)C=C[C@]4(C)[C@@]3(F)[C@@H](O)C[C@]2(C)[C@@]1(O)C(=O)CO` [dexamethasone], in assay [1], the mCherry was 108% and 115%. The percent effect in assay [2] was -0.53% and -9.85%.
In turn, `C/C=C/C/C=C/CCC(=O)[C@H]1O[C@H]1C(N)=O` [Helicocerin] came in with a mCherry in assay [1] of 102%. For the same molecule, the percent effect in assay [2] is -9.07%.
On to `O=C(NCCCN1CCOCC1)c1ccc(Cl)cc1` [eprobemide], for which, in assay [1], the mCherry was 89%. Also, the percent effect in assay [2] is -0.921%.
In the same order, the values of `Nc1nc(OCc2cc(Br)cs2)c2[nH]cnc2n1` [lomeguatrib] are 99.2% and -6.35%.
In the same order, the values of `CN(C)CCOC(c1ccc(Cl)cc1)c1ccccn1` (stereo unspecified) [carbinoxamine] are 102% and -0.211%.
On the same counts, the results for `CC(=O)NO` [acetohydroxamic acid] are 121% and -0.795%.
For the molecule `CC(C)(C)NCC(O)c1ccc(O)c(CO)c1` (stereo unspecified) [salbutamol], the mCherry in assay [1] is 87.6% and 90.5%. Besides, the percent effect in assay [2] was 6.06% and -5.26%.
Regarding `Cc1cc2c(OCC(CNC(C)(C)C)OC(=O)c3ccccc3)cccc2[nH]1` (stereo unspecified) [bopindolol], the mCherry in assay [1] was determined as 111%. The percent effect in assay [2] was -2.18%.
On the same counts, the results for `CCCc1c(SCCCOc2ccc(C(C)=O)c(OCCCC(=O)O)c2CCC)ccc(C(C)=O)c1O` [tipelukast] are 94.9% and 2.87%.
For the molecule `NC1CCN(c2nc3c(cc2F)c(=O)c(C(=O)O)cn3-c2ccc(F)cc2F)C1` (stereo unspecified) [tosufloxacin], the mCherry in assay [1] worked out at 91%. The percent effect in assay [2] was -1.7%.
For `CCOC(=O)C1=C[C@]2(CC)CCCN3CCc4c(n1c1ccccc41)[C@@H]32` [Vinpocetine], the mCherry in assay [1] came out at 86%. Besides, the percent effect in assay [2] is -4.42%.

Values taken from the supplement of paper PMC8256030.
